Data from PubChem BioAssay AID2685 (National Center for Advancing Translational Sciences (NCATS), 2010).
Some of the results follow. Further columns of the screen follow, without active or inactive calls. The list favours compounds with an active or inconclusive main result. The note in brackets gives the kind of curve behind each potency; many fits are weak.

Assay: qHTS Assay for Lipid Storage Modulators in Drosophila S3 Cells;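 for cell number change: cells counted by Cell Tracker Red CMTPX staining in the red channel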
Conditions: BODIPY lipid droplet fluorescence, 18-24 h; for cell number change: measured here: cell count max response, cells fed with added oleic acid
Procedure, shortened: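 Drosophila S3 cells loaded with oleic acid (400 uM, as added) and compounds at several concentrations; lipid droplets imaged by 488-nm laser-scanning cytometry, 500–530 nm intensity and object ratio to cell channel. Percent activity normalized to 20 uM Triacsin C.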

[1] = measured here: lipid fluorescence (Fed channel) AC50, cells fed with added oleic acid
[2] = measured here: cell number channel AC50, cells fed with added oleic acid

Structure (SMILES): COc1ccc(C(OC(=O)c2ccco2)C(=O)NC2CCCCC2)cc1OC (stereo not given)
- cell number change: -14.7%
- AC50 [1]: 0.731 µM [falling, full curve]

Structure (SMILES): COc1ccccc1-c1ccc(=O)n(CC(=O)NC(C)(C)C)n1
- cell number change: 12.3%
- AC50 [1]: 29.1 µM [falling, single point]

Structure (SMILES): COc1ccc(NC(=O)C2CCCN(C(=O)Nc3cccc(OC)c3)C2)cc1 (stereo not given)
- cell number change: 14.3%
- AC50 [1]: 29.1 µM [rising, partial curve, poor fit]

Structure (SMILES): COc1ccc(CCC(=O)NNC(=O)Nc2ccccc2Cl)cc1
- cell number change: 15.5%
- AC50 [1]: 23.1 µM [rising, single point]

Structure (SMILES): CCc1ccc(N(CC(=O)Nc2ccc(OC)cc2OC)S(C)(=O)=O)cc1
- cell number change: 1.05%
- AC50 [1]: 2.59 µM [rising, single point]

Structure (SMILES): Cc1cc(C)cc(NS(=O)(=O)c2c(C)[nH]c(=O)[nH]c2=O)c1
- cell number change: -37.3%
- AC50 [2]: 1.64 µM [falling, partial curve]

Structure (SMILES): CN(C)c1ccc(/C=C(\NC(=O)c2ccccc2)C(=O)NCCCn2ccnc2)cc1
- cell number change: -3.97%

Structure (SMILES): Cc1cccc(NC(=O)Nc2ccc(Oc3c(F)c(F)c(F)c(F)c3F)cc2)c1
- cell number change: -50.5%
- AC50 [2]: 8.2 µM [falling, partial curve]
- AC50 [1]: 13 µM [falling, partial curve]

Structure (SMILES): O=C(NC(=S)Nc1cc(C(F)(F)F)ccc1N1CCOCC1)c1ccco1
- cell number change: -10.5%
- AC50 [1]: 0.0058 µM [falling, full curve, poor fit]

Structure (SMILES): O=C(Nc1ccccc1N1CCN(C(=O)c2ccccc2)CC1)c1ccc2c(c1)OCO2
- cell number change: 1.88%
- AC50 [2]: 1.03 µM [falling, full curve]
- AC50 [1]: 0.82 µM [falling, full curve]

Structure (SMILES): COc1ccc(OC)c(S(=O)(=O)Nc2ccc(-c3ccc4nnc(C)n4n3)cc2)c1
- cell number change: -49.6%
- AC50 [2]: 23.1 µM [falling, single point]
- AC50 [1]: 23.1 µM [falling, single point]

Structure (SMILES): O=C(N/N=C\c1cc([N+](=O)[O-])ccc1N1CCOCC1)c1ccccn1
- cell number change: -4.96%
- AC50 [1]: 8.91 µM [falling, partial curve]

Structure (SMILES): COc1ccc(C(C[N+](=O)[O-])c2c(-c3ccccc3)cc3ccccn23)cc1OC (stereo not given)
- cell number change: 88%
- AC50 [2]: 7.31 µM [rising, partial curve]
- AC50 [1]: 0.00517 µM [falling, full curve, poor fit]

Structure (SMILES): CC1CC1c1ccc(/C=C(\C#N)C(=O)Nc2cccc(Cl)c2Cl)o1 (stereo not given)
- cell number change: 0.626%
- AC50 [2]: 6.51 µM [falling, single point]
- AC50 [1]: 6.51 µM [falling, single point]

Structure (SMILES): COc1ccccc1-c1sc2ccccc2c1-c1ccc2c(c1)OCO2
- cell number change: 11.3%
- AC50 [1]: 29.1 µM [rising, single point]

Structure (SMILES): Oc1ccc(/C=N/N(c2ccccc2)c2ccccc2)c(O)c1O
- cell number change: -25.6%

Structure (SMILES): CCC(C)(C)NC(=O)C(c1ccc(OC)cc1)N(C(=O)CCC(=O)Nc1cc(C)on1)c1cccc(OC)c1 (stereo not given)
- cell number change: -2.92%

Structure (SMILES): COc1ccccc1-c1c(C)nn2c(-c3ccccc3)cc(C)nc12
- cell number change: 41.7%
- AC50 [2]: 29.1 µM [rising, single point]
- AC50 [1]: 0.517 µM [rising, full curve]

Structure (SMILES): Cc1occc1-c1nnc(SCC(=O)NCC2CCCO2)n1C (stereo not given)
- cell number change: -21.9%
- AC50 [2]: 4.61 µM [falling, single point]
- AC50 [1]: 3.26 µM [falling, full curve]

Structure (SMILES): C=CCn1c(SCC(=O)N2CCOCC2)nc2scc(-c3ccco3)c2c1=O
- cell number change: -35.2%
- AC50 [2]: 11.6 µM [falling, partial curve]
- AC50 [1]: 18.4 µM [falling, partial curve, poor fit]

Structure (SMILES): O=C(CSc1nnnn1-c1ccccc1)Nc1ccccc1
- cell number change: 16.6%
- AC50 [1]: 6.51 µM [rising, single point]

Structure (SMILES): CN(C)c1ccc(-c2ccc3c(=O)c4ccccc4n(C)c3c2)cn1
- AC50 [1]: 16.4 µM [falling, single point]

Structure (SMILES): CSc1nc(-c2ccco2)cc(-c2ccccc2)c1C#N
- cell number change: -32.7%
- AC50 [2]: 0.164 µM [falling, full curve, poor fit]
- AC50 [1]: 0.00517 µM [falling, full curve, poor fit]

Structure (SMILES): OC1CN=C2Sc3ccccc3N2C1 (stereo not given)
- cell number change: -213%
- AC50 [2]: 29.1 µM [falling, partial curve]
- AC50 [1]: 20.6 µM [falling, partial curve]

Structure (SMILES): O=C1C=C(c2cc(Cl)cc(Cl)c2)C[C@@H](c2ccc3c(c2)OCO3)C1
- cell number change: -7.18%
- AC50 [1]: 0.116 µM [rising, full curve]

Structure (SMILES): COc1ccc(C(=O)Nc2ccccc2C(N)=O)cc1
- cell number change: 7.28%

Structure (SMILES): O=C(COC(=O)c1cc(=O)[nH]c2ccccc12)NC(=O)NC1CCCCC1
- cell number change: 2.59%
- AC50 [1]: 0.116 µM [falling, full curve, poor fit]

Structure (SMILES): CC(C)(C)C(=O)Nc1nnc(SCC(=O)NC2CC2)s1
- cell number change: 14.7%
- AC50 [1]: 29.1 µM [falling, single point]

Structure (SMILES): O=C(Nc1ncc(Cc2ccc(Cl)cc2Cl)s1)c1ccc([N+](=O)[O-])cc1
- cell number change: -11.4%
- AC50 [2]: 0.146 µM [falling, full curve, poor fit]

Structure (SMILES): CCOc1ccc(CCNC(=O)COC(=O)c2ccc(OC(C)C)cc2)cc1OCC
- cell number change: -95%
- AC50 [2]: 3.26 µM [falling, partial curve]
- AC50 [1]: 1.16 µM [falling, full curve]

Structure (SMILES): COc1ccc(NC(=O)c2cccnc2)c([N+](=O)[O-])c1
- cell number change: 6.73%

Structure (SMILES): CCN1CCN(C(=O)c2ccccc2N(Cc2ccccc2)S(=O)(=O)c2ccc(OC)cc2)CC1
- cell number change: 14%
- AC50 [1]: 29.1 µM [rising, single point]

Structure (SMILES): FC(F)(F)c1cccc(NC(=S)Nc2ccc(Cl)cc2Cl)c1
- cell number change: -22.1%

Structure (SMILES): Cc1nn(-c2ccc(Cl)cc2)c2sc(C(=O)N3CCN(C(=O)c4ccco4)CC3)cc12
- AC50 [2]: 0.291 µM [rising, partial curve, poor fit]

Structure (SMILES): CC(CCCC(C)(C)O)NC(=O)c1cc(COc2ccc3ncccc3c2)on1 (stereo not given)
- cell number change: -56.8%
- AC50 [2]: 10.3 µM [falling, partial curve]
- AC50 [1]: 7.31 µM [falling, partial curve]

Structure (SMILES): Cn1c(CCNC(=O)c2ccccc2)nc2cc(NC(=O)C3CCCCC3)ccc21
- AC50 [2]: 6.51 µM [rising, single point]

Structure (SMILES): O=[N+]([O-])c1cc(S(=O)(=O)N2CCCCC2)ccc1NCCN1CCOCC1
- cell number change: -0.797%

Structure (SMILES): CSc1ncccc1C(=O)Nc1ccc(OC(F)(F)F)cc1
- cell number change: 42.6%
- AC50 [2]: 0.461 µM [rising, full curve]
- AC50 [1]: 29.1 µM [rising, partial curve, poor fit]

Structure (SMILES): O=C(CN1C(=O)NC2(CCCCCC2)C1=O)N1CCN(S(=O)(=O)c2ccccc2)CC1
- cell number change: -104%
- AC50 [2]: 29.1 µM [falling, single point]
- AC50 [1]: 29.1 µM [falling, single point]

Structure (SMILES): O=C(Oc1ccc([N+](=O)[O-])cc1)c1cncc(Br)c1
- cell number change: -2.57%
- AC50 [1]: 14.6 µM [rising, single point]

Structure (SMILES): O=C(CSc1nc(C(F)(F)F)cc(=O)[nH]1)Nc1ccc2c(c1)OCCO2
- cell number change: 75%
- AC50 [2]: 29.1 µM [rising, single point]

Structure (SMILES): Cc1[nH]c2ccccc2c1C(c1ccncc1)N1CCCCC1 (stereo not given)
- cell number change: -9.34%
- AC50 [2]: 0.00461 µM [falling, full curve, poor fit]
- AC50 [1]: 2.91 µM [falling, full curve]

Structure (SMILES): Cc1cc(C)c2c(n1)sc1c(=O)[nH]c(SCc3ccccc3)nc12
- cell number change: -24.2%
- AC50 [1]: 0.0731 µM [falling, full curve]

Structure (SMILES): CN1CCN(CC(O)COCCOc2ccc(Br)cc2)CC1 (stereo not given)
- cell number change: 12.2%
- AC50 [1]: 0.731 µM [rising, full curve, poor fit]

Structure (SMILES): COCCNC(=O)c1c(N)n(-c2ccccc2)c2nc3ccccc3nc12
- cell number change: 25.2%
- AC50 [2]: 2.06 µM [rising, full curve, poor fit]
- AC50 [1]: 2.31 µM [rising, partial curve]

Structure (SMILES): CN(CCOc1ccccc1)CC(=O)Nc1ccc(Cl)c(S(=O)(=O)N(C)C)c1
- AC50 [1]: 20.6 µM [rising, single point]

Structure (SMILES): Cc1nc2cc(C(=O)NCCN3CCOCC3)ccc2n1-c1ccc(F)cc1F
- AC50 [2]: 6.51 µM [rising, single point]

Structure (SMILES): COC(=O)c1ccc(S(=O)(=O)NCc2ccc(S(N)(=O)=O)cc2)o1
- AC50 [2]: 0.116 µM [falling, full curve, poor fit]
- AC50 [1]: 0.206 µM [falling, full curve, poor fit]

Structure (SMILES): CCCCN(CC)S(=O)(=O)c1ccc2c(c1)CCCN2C(C)=O
- cell number change: 22.9%
- AC50 [1]: 1.46 µM [rising, partial curve]

Structure (SMILES): COc1ccc(NC(=O)C2CCN(S(=O)(=O)c3cccc4nonc34)CC2)cc1
- cell number change: 183%
- AC50 [2]: 29.1 µM [rising, single point]

Structure (SMILES): CCOC(=O)CSC1=C(C#N)C(c2ccco2)C(C(=O)Nc2cccc(C(F)(F)F)c2)=C(C)N1 (stereo not given)
- cell number change: -13.5%
- AC50 [1]: 0.231 µM [falling, full curve]

Structure (SMILES): CCOC(=O)c1c(S(=O)(=O)NCC(=O)Nc2ccccc2)c(C)n(C)c1C
- cell number change: 92.4%
- AC50 [2]: 29.1 µM [rising, single point]

Structure (SMILES): O=C1c2cccc3c(N4CCCCC4)ccc(c23)C(=O)N1c1cccc(O)c1
- cell number change: -95.9%
- AC50 [2]: 10.3 µM [falling, partial curve, poor fit]

Structure (SMILES): CCOC(=O)C1CCN(C(=O)c2ccccc2NS(=O)(=O)c2cc(C)ccc2C)CC1
- cell number change: 22.1%
- AC50 [1]: 0.259 µM [rising, full curve, poor fit]

Structure (SMILES): COc1ccc(CNC(=O)COC(=O)/C=C/c2cccc(Br)c2)cc1
- cell number change: 12.3%
- AC50 [2]: 0.82 µM [falling, full curve, poor fit]
- AC50 [1]: 10.3 µM [falling, single point]
